Results published in patent US20110158938A1.
Results are given in words; binding and its absence hold for the method and conditions named. Some binding calls cover weakened binding; strength is not graded here.

Amino acid sequences for entries named in this document (tags omitted). A change or cut given only in a name is not applied to a line headed by its entry.
UniProt Q13261: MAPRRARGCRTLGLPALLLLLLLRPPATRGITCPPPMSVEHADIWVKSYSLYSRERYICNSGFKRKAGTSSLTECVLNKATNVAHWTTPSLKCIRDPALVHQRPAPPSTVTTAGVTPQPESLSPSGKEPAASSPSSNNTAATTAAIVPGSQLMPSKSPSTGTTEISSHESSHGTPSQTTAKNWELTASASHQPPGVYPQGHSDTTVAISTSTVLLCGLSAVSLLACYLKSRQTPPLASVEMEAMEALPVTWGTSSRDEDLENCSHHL

How the values were obtained:
[1] = molecular target: T1, peptide 2 (64ENLII68) (human); test: pepscan on 12-mer and 30-mer IL-15 peptides, 330 nM fusion protein
T1 sequence (peptide): ENLII

[2] = molecular target: T2, peptide 1 (44…52) (human); test: as above
T2 sequence (peptide): LLELQVISL

[3] = molecular target: T1, peptide 2 (64ENLII68) (human); test: pepscan
[4] = molecular target: T2, peptide 1 (44…52) (human); test: pepscan

Measured: binding

soluble IL-15Rα-IL-2 fusion protein (from UniProt Q13261 31-205; P60568 21-153)
binds: all assays above
